Measured values taken from the supplement of paper PMC12889115.
Some of the results follow. These are raw signals, not scaled to a control.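 In the initial screen, polymyxin B was used at a concentration that permeabilizes Salmonella's outer membrane but not its inner membrane. Maximum growth was set by DMSO wells with or without polymyxin B. Since plates varied, data were ranked per plate, and compounds giving the lowest OD600 advanced as hits.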

Test system: Salmonella enterica serovar Typhimurium SL1344
Assay: bacterial growth OD600 after 18 h with compound and polymyxin B; higher = more bacterial growth (less inhibition)
Settings: 50 µM, Mueller-Hinton broth

SMILES | bacterial growth OD600 (polymyxin B 1 µg/mL) | bacterial growth OD600 (polymyxin B 0.75 µg/mL)
CC(C)N(C)C(=O)CC1C(=O)NCCN1Cc1ccc(F)cc1Cl (stereo unspecified) | 0.89 | 
COc1ccccc1OCC(=O)NCC1CCCN(Cc2ccccc2C)C1 (stereo unspecified) | 0.854 | 
Cc1nc(C)c(C(=O)N2CCc3[nH]nc(-c4ccc5c(c4)OCO5)c3C2)s1 |  | 0.695
C=CCC(=O)N1CCC(Oc2ccc(C(=O)NC3CCCC3)cc2Cl)CC1 | 1.22 | 
Cc1ncc2c(c1CNC(=O)CSc1ccccc1)CCN(C(=O)C1COc3ccccc3O1)C2 (stereo unspecified) |  | 0.788
COC(=O)[C@@H](NC1CCN(c2cccc(NC(=O)c3ccncc3)c2)CC1)c1ccccc1 |  | 0.826
c1ccc(-c2ncc3c(n2)CCCC3NC2CCCC2)cc1 (stereo unspecified) | 0.864 | 
COCCNC(=O)CCC1CCN(Cc2cccc3cccnc23)CC1 | 0.89 | 
COCCNC1CCN(c2ccc(NC(=O)CCCCc3ccccc3)cc2)CC1 |  | 0.822
COc1cccc(OCc2nc(C(=O)NCc3ccc(F)c(F)c3)co2)c1 | 0.701 | 
Cc1cnc(CNC(=O)c2cc(Cn3c(C)nc4ccccc43)[nH]n2)cn1 | 1.27 | 
CN(C)C(=O)CC(c1ccccc1)c1ccccc1Cl (stereo unspecified) | 0.531 | 
c1cc(CNC2COc3ccccc3C2)cc(-c2ccco2)c1 (stereo unspecified) | 0.822 | 
CCOC(=O)C1(Cc2ccc(F)cc2)CCCN(C(=O)CCn2nccc2C)C1 (stereo unspecified) | 0.816 | 
Cc1cccc(NC(=O)CCC2CCN(C(=O)CCN3CCCCC3=O)CC2)c1 | 0.97 | 
CC1CN(C(=O)c2ccc(OC3CCN(CC(C)(C)C)CC3)c(Cl)c2)CCN1C (stereo unspecified) | 0.922 | 
NC(=O)C1CCN(Cc2cn(Cc3ccccc3)nc2-c2ccc3c(c2)OCO3)CC1 | 1.03 | 
CCN(CCn1cccn1)Cc1nc(-c2ccc(C(F)(F)F)cc2)oc1C | 0.733 | 
Cc1c[nH]c(CN2CCC(c3ccc(F)c(F)c3)Sc3ccccc32)n1 (stereo unspecified) |  | 0.672
O=S(=O)(c1ccc(Cl)s1)N1CCC(n2c(CCc3ccccc3)nc3cccnc32)CC1 |  | 0.676
COc1ccc(CN2CCCC(CO)(Cc3cccc(OC)c3)C2)cc1 (stereo unspecified) | 0.985 | 

Complete entries from above:
O=S(=O)(c1ccc(Cl)s1)N1CCC(n2c(CCc3ccccc3)nc3cccnc32)CC1 is listed with bacterial growth OD600 (polymyxin B 0.75 µg/mL): 0.676
C=CCC(=O)N1CCC(Oc2ccc(C(=O)NC3CCCC3)cc2Cl)CC1 is listed with bacterial growth OD600 (polymyxin B 1 µg/mL): 1.22
